These are yes or no findings as the source states them, for the method shown. Some entries that bind do so weakly or less than the wild type. Tags and fused reporters may be left off the sequences shown.
Biological target: T1, ICOS-L Y8 displayed on yeast (UniProt O75144)
T1 sequence: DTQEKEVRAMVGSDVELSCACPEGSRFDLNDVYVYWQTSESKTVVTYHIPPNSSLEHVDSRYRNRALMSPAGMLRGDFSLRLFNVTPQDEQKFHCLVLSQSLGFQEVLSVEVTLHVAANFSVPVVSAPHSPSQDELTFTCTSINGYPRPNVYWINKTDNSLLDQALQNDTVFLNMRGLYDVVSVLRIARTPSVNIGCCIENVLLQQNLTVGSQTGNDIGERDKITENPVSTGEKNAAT
Assay: flow cytometry on cells; yeast cells displaying ICOS-L variants labelled with hICOS-Fc-Alexa488 and anti-FLAG-iFluor647 for 1 h at room temperature in PBSB (0.1% BSA in PBS); only the binder purified

B1: hICOS-Fc-Alexa488 (Fc fusion, UniProt Q9Y6W8 21-140)
chain: EINGSANYEMFIFHNGGVQILCKYPDIVQQFKMQLLKGGQILCDLTKTKGSGNTVSIKSLKFCHSQLSNNSVSFFLYNLDHSHANYYFCNLSIFDPPPFKVTLTGGYLHIYESQLCCQLK
modifications: Alexa Fluor 488 label
For B1, which binding is on record?
The binding was “binds”.
